Measurements as given in PMC12305721 (International Journal of Pharmaceutics: X, 2025).

Settings: from water solubility <0.1 mg/mL and log P > 2.0

Nc1nc2ccc(OC(F)(F)F)cc2s1 [Riluzole]
Biopharmaceutics Classification System (BCS) class: Class II
